According to article PMC9260921, “Design and Synthesis of Carbothioamide/Carboxamide-Based Pyrazoline Analogs as Potential Anticancer Agents: Apoptosis, Molecular Docking, ADME Assay, and DNA Binding Studies” (ACS Omega, 2022):

Assays:
Format in all cases: cell-based
[1] = system: human lung cancer cell (A549); assay: MTT cytotoxicity assay, A549; settings: HFL-1 vs A549
Method: (§1) The American type culture collection (ATCC, USA) provided human lung cancer cell line (A549), cervical cancer cell line (HeLa), and human primary normal lung cells (HFL-1) for this investigation. In a water-jacketed cell culture incubator, all of these cell types were cultured according to conventional culture conditions at 37 °C with 5% CO2. These cells were cultured in appropriate cell culture media. A549 cells were grown in DMEM media with 2 mM glutamine, HeLa cells were grown in Eagle’s minimum essential medium (EMEM) as recommended, whereas HFL-1 cells were also grown in F-12K. Fetal bovine serum 10% (FBS) was added to the entire medium. At a rate of 8000 cells were seeded in triplicate in a single 96-well plate for the MTT technique of cell death investigation. […] After the treatment period was finished, the media was removed, and each well was gently washed three times with PBS to clear any remaining residue just before the experiment. […] A hybrid multi-mode plate reader (BioTek, USA) with a microplate reader was used to measure absorbance at 570 nm. The percentage inhibition was calculated using eq 1: [drawing 1] […]
(§2) With all of the experimental drugs, we conducted the MTT assay three times. Prism8 software (GraphPad) was used to determine the IC50 values of the various drugs, which were then expressed as a drug concentration (μM).

[2] = system: human primary normal lung cells (HFL-1); assay: MTT cytotoxicity assay, HFL-1; settings: HFL1, 24 h treatment
Method: The American type culture collection (ATCC, USA) provided human lung cancer cell line (A549), cervical cancer cell line (HeLa), and human primary normal lung cells (HFL-1) for this investigation. In a water-jacketed cell culture incubator, all of these cell types were cultured according to conventional culture conditions at 37 °C with 5% CO2. These cells were cultured in appropriate cell culture media. A549 cells were grown in DMEM media with 2 mM glutamine, HeLa cells were grown in Eagle’s minimum essential medium (EMEM) as recommended, whereas HFL-1 cells were also grown in F-12K. Fetal bovine serum 10% (FBS) was added to the entire medium. At a rate of 8000 cells were seeded in triplicate in a single 96-well plate for the MTT technique of cell death investigation. […]. After the treatment period was finished, the media was removed, and each well was gently washed three times with PBS to clear any remaining residue just before the experiment. […] A hybrid multi-mode plate reader (BioTek, USA) with a microplate reader was used to measure absorbance at 570 nm. The percentage inhibition was calculated using eq 1: [drawing 1] […]
as §2

[3] = system: human cervical cancer cell (HeLa); assay: MTT cytotoxicity assay, HeLa; settings: HFL-1 vs HeLa
Method: as §1, §2

In the case of CN[C@@H]1C[C@H]2O[C@@](C)([C@@H]1OC)n1c3ccccc3c3c4c(c5c6ccccc6n2c5c31)C(=O)NC4 [STS, Staurosporine, reference compound], the “Selectivity Index A549” value [1] is reported as 1.0, the IC50 [2] is reported as 62.86 ± 0.17 µM and the “Selectivity Index HeLa” value [3] is reported as 1.1.
